Measured values from article PMC6590293.
No constants are given. Whether binding was seen depends on the method and setting. Binding seen in cells or lysates may run through a third protein. Some results given as binding are weak or reduced against the parent protein; the word gives no strength.

By UniProt entry, the sequences of proteins in these tests, tags left out. Residues count along the entry.
UniProt P15941, residues 24-1255: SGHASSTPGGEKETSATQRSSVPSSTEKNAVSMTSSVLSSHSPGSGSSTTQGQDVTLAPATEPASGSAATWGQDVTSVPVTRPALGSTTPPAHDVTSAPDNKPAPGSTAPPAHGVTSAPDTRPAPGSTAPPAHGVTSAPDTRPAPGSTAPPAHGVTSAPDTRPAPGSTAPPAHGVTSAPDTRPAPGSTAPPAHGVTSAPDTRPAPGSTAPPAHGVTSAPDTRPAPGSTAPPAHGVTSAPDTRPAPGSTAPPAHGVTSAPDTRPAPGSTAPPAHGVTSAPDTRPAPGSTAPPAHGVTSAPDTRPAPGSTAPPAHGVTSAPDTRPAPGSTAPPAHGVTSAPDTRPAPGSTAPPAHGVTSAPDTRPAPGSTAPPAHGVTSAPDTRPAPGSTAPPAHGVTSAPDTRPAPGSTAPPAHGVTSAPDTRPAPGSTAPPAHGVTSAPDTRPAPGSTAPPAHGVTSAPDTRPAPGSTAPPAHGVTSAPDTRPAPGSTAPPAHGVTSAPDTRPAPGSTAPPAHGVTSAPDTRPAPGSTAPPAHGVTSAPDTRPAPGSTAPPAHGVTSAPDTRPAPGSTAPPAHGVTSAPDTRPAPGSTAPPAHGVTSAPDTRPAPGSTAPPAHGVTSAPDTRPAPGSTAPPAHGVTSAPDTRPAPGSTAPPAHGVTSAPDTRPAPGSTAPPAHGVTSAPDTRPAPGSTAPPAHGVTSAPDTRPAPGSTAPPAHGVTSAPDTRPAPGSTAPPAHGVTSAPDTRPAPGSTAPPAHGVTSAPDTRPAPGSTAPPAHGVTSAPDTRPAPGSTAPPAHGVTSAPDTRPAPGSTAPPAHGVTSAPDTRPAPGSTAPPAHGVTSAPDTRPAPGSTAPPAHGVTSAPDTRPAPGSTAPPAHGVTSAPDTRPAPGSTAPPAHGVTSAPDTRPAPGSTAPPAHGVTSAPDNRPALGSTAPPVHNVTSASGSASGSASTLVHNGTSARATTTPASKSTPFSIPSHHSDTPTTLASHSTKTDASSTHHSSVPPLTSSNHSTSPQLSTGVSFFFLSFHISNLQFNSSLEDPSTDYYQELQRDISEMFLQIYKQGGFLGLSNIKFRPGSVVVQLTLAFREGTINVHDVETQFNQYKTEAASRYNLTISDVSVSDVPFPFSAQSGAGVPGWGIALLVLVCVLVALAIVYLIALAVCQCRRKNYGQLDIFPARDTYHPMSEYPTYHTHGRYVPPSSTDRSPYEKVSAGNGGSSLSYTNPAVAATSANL
UniProt Q13546: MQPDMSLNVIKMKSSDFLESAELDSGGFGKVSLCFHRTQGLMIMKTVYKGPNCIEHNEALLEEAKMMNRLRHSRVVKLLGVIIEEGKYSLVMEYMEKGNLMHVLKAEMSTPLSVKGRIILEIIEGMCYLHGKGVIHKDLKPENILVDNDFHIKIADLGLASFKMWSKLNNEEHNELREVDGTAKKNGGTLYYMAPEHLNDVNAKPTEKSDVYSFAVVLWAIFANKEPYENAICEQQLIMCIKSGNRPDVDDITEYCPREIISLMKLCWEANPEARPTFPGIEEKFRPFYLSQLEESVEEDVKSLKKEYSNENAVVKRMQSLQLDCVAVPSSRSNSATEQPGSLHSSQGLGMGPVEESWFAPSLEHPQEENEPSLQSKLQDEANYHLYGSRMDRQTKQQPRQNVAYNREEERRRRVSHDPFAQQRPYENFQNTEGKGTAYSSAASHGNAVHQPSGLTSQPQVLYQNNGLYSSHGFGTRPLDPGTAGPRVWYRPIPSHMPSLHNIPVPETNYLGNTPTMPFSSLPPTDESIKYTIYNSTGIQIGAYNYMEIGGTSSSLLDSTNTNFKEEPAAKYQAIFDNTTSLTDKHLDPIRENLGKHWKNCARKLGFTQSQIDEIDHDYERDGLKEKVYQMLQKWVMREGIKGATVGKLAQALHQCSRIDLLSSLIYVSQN

Target: MUC1 (mucin 1) (human (endogenous in 16HBE)) (UniProt P15941)
Test: co-IP; endogenous proteins in lysates of normal 16HBE cells, with or without TNF-α for 24 hr; lysates incubated overnight at 4°C with antibodies against RIPK1, RIPK3 or MUC1-CT or isotype-matched nonimmune IgG; protein A/G agarose beads, washed five times with lysis buffer; immunoblot

binding: binds
Substance: receptor-interacting protein kinase-1 (RIPK1) (from UniProt Q13546 1-671)
